The other results are listed elsewhere or left out.
How the values were obtained:
Test in all cases: log2 fold change, soluble protein after heating vs DMSO (PISA); higher = thermal stabilisation; K562 lysate, 10 uM; active = over 0.2 and 3.5 SD of the protein, either way, in both replicates (recomputed)
[1] = compound: CN1CC[C@H](c2c(O)cc(O)c3c(=O)cc(-c4ccccc4Cl)oc23)[C@H](O)C1 [alvocidib]
Summary of the method: (§1)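 K562 pellets were dounce-homogenised in PBS pH 7.4 with 1 mM MgCl2, and the crude extract at 1 mg/mL protein was treated with 10 μM compound for 30 min. Aliquots were heated for 3 min across 48°C-58°C, pooled, and brought to 0.5% NP-40 at 4°C; soluble protein was the supernatant after 21,000xg for 90 min. Soluble protein was quantified by TMTpro 16plex LC-MS/MS with channel sums equalised, and reported as log2 fold change in thermal stability against DMSO controls, with values from duplicates.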

Chains of the proteins cited; added tags and fusions are not shown. Lines headed by an entry give the natural chain unless they say otherwise; changes in a name come on top.
UniProt Q9C0J8: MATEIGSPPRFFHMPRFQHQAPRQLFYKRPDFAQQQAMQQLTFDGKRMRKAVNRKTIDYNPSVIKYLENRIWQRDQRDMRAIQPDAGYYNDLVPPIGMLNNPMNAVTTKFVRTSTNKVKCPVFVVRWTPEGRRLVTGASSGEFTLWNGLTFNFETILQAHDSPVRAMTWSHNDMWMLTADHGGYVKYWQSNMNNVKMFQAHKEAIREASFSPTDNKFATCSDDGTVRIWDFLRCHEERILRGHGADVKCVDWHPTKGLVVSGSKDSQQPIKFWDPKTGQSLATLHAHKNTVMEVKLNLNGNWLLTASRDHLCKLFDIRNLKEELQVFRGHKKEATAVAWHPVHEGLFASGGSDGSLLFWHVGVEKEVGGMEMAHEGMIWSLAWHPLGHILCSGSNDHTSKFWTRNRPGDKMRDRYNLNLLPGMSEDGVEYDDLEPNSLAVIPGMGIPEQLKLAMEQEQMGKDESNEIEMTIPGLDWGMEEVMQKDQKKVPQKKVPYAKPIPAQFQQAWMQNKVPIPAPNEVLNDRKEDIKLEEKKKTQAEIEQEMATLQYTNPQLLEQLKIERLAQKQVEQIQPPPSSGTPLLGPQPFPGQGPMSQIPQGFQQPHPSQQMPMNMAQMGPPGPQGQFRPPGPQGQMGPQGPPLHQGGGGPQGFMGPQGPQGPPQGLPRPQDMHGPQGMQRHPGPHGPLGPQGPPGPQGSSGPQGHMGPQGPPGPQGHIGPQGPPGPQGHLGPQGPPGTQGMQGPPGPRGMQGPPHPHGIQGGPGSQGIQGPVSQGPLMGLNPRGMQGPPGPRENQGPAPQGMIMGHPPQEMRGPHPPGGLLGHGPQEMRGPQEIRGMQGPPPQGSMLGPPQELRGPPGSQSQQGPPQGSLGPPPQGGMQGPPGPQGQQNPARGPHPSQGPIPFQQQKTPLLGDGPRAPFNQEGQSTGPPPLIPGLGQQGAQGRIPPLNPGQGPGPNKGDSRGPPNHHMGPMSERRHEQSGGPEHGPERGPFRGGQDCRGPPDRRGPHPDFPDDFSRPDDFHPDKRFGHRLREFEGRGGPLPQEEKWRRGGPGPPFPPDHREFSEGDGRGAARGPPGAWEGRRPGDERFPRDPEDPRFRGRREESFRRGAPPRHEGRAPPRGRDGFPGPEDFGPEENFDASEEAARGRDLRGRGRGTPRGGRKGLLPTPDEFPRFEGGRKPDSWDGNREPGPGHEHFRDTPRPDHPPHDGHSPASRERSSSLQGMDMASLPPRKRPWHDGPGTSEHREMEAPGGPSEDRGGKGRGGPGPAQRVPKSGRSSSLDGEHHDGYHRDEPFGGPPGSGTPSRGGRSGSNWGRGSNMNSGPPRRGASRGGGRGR
UniProt Q8N9V3: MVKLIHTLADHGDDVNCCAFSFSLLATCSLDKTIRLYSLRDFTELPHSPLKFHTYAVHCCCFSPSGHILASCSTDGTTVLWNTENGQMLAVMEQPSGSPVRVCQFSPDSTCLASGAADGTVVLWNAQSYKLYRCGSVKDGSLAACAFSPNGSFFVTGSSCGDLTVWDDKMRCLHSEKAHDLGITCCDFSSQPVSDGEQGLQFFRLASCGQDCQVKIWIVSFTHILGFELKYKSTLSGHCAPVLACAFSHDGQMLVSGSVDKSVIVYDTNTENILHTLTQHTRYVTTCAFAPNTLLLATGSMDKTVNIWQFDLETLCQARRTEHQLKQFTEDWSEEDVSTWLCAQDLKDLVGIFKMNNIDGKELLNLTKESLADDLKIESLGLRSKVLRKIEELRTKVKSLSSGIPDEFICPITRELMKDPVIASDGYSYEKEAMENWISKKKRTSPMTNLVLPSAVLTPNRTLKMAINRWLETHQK
UniProt Q7Z7G8: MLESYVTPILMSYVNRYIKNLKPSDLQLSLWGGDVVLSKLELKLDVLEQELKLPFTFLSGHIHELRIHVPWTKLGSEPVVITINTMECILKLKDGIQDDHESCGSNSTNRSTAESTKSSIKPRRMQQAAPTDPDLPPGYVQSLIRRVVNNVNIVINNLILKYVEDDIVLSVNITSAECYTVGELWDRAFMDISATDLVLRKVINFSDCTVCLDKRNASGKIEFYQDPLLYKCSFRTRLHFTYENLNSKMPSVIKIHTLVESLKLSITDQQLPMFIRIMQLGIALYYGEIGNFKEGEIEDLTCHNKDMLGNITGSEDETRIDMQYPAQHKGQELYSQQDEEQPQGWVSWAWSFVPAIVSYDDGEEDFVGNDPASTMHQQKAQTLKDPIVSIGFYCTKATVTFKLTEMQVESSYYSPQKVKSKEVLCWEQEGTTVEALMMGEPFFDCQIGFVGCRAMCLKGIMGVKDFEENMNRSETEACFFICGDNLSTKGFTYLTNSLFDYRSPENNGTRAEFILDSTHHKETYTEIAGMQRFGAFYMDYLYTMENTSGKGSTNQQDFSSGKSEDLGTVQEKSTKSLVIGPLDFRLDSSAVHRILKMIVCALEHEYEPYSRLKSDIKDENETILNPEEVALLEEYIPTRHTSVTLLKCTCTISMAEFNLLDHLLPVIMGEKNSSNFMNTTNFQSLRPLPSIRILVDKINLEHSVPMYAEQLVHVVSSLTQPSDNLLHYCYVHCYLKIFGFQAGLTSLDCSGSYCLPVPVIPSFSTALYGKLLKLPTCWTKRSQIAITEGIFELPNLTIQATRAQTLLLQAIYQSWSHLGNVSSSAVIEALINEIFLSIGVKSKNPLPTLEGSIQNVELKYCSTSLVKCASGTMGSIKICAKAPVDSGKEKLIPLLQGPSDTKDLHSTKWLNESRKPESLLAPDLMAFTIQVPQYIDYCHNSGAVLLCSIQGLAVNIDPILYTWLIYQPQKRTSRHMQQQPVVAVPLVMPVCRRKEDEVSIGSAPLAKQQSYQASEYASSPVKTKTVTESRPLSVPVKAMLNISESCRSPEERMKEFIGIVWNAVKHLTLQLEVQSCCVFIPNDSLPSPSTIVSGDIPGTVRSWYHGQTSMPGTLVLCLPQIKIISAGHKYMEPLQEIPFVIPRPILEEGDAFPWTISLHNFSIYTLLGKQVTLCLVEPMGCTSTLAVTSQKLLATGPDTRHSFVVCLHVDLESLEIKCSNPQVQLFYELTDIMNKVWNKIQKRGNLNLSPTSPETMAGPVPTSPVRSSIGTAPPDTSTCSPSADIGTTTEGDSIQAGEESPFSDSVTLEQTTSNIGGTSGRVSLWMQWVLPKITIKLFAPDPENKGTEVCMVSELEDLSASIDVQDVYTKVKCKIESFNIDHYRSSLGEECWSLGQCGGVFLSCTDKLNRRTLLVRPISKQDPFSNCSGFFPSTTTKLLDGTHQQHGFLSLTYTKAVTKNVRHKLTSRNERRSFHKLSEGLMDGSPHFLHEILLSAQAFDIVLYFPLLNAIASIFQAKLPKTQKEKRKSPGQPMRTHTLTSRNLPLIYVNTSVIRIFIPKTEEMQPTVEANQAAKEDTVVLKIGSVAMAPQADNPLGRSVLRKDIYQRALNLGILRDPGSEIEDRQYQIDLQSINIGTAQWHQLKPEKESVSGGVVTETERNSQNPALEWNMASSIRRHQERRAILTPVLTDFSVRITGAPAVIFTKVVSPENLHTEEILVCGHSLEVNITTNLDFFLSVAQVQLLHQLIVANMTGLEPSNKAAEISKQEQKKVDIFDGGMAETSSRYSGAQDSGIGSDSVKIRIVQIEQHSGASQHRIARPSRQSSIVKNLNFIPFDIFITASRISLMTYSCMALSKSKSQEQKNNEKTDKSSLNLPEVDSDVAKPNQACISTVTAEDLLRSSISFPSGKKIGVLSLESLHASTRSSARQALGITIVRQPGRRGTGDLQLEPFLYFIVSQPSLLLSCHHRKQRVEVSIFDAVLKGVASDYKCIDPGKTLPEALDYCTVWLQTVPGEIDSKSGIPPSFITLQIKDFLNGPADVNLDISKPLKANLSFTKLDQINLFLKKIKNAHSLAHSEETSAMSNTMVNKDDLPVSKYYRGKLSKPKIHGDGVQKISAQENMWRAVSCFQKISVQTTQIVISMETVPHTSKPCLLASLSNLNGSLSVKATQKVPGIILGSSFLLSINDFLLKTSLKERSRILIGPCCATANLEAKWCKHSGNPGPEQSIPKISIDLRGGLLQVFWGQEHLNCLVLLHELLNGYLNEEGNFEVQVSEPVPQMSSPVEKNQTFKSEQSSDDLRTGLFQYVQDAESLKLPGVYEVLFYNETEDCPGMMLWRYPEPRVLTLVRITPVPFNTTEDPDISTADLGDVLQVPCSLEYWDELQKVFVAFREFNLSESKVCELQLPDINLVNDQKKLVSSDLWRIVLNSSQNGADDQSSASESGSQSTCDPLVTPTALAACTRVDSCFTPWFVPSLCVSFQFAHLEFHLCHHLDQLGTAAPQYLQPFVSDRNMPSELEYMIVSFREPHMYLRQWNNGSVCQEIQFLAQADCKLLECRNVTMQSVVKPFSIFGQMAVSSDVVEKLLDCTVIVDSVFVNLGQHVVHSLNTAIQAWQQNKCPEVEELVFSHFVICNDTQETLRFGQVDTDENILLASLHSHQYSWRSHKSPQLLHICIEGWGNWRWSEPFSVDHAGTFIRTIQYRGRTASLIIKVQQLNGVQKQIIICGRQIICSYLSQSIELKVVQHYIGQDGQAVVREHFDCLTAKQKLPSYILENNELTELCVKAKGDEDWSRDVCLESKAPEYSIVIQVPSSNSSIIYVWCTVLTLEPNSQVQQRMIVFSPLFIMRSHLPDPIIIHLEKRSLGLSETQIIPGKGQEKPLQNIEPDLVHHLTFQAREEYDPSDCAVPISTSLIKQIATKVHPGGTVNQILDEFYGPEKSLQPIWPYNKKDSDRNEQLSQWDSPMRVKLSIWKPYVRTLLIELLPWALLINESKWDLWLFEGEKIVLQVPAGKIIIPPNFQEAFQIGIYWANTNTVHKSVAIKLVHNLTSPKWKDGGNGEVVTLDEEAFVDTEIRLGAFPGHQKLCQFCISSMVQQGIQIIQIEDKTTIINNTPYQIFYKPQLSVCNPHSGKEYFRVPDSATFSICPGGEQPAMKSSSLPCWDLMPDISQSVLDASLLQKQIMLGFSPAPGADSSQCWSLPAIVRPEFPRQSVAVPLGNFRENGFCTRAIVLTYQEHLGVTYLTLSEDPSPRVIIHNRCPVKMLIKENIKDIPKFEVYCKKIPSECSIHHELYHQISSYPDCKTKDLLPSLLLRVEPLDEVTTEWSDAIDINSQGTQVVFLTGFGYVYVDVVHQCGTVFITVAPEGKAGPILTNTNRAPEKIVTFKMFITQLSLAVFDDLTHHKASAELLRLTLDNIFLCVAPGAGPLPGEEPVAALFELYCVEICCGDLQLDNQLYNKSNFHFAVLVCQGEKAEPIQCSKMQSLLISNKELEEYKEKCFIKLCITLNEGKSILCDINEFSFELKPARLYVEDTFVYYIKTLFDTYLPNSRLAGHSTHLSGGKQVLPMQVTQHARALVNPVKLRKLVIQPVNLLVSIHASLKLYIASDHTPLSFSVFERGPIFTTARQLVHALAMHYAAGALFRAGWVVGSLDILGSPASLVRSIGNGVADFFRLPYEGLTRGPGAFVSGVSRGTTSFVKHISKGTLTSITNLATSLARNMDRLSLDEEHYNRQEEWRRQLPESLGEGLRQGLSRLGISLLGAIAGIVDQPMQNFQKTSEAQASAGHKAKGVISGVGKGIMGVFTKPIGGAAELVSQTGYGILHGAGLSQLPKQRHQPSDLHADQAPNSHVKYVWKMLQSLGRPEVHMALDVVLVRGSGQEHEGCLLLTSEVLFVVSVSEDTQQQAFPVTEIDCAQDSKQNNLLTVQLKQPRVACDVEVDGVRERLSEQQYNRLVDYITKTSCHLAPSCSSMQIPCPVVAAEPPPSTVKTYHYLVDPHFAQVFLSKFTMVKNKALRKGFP
UniProt Q9BV38: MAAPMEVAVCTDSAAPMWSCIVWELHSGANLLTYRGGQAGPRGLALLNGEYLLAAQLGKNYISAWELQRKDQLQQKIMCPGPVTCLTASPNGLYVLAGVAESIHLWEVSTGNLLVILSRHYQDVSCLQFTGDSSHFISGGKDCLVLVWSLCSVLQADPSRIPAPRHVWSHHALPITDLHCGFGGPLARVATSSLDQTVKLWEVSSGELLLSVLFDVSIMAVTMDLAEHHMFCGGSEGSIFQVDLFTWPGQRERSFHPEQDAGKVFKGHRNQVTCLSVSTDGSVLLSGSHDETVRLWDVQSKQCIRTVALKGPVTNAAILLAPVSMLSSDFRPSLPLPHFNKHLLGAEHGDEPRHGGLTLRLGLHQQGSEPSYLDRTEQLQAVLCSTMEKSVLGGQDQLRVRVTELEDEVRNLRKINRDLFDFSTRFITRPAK
UniProt Q9Y3C0: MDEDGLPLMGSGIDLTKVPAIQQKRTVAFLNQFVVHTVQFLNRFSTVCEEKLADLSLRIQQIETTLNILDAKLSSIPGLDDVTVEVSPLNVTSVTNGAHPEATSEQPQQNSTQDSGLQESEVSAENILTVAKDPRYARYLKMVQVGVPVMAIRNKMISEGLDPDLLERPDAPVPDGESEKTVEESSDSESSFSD

[2] = compound: CN1CCc2c(c3ccccc3n2Cc2ccc(C(=O)NO)cc2)C1 [Tubastatin A]
Summary of the method: as §1

[3] = compound: CNC(=O)C1=CC=CC=C1NC2=NC(=NC=C2Cl)NC3=C(C=C(C=C3)N4CCOCC4)OC
Summary of the method: as §1

[4] = compound: CNC(=O)c1ccc(Nc2ncc(C(F)(F)F)c(NCc3nccnc3N(C)S(C)(=O)=O)n2)cc1 [defactinib]
Summary of the method: as §1

[5] = compound: CNc1nc(-c2ccc3c(N)n[nH]c3c2)cc(N2C[C@@H](C(=O)NC3CCCCC3)CC[C@H]2C)n1
Summary of the method: as §1

[6] = compound: COC(=O)N[C@@H](C)CNc1nccc(-c2cn(C(C)C)nc2-c2cc(Cl)cc(NS(C)(=O)=O)c2F)n1 [encorafenib]
Summary of the method: as §1

[7] = compound: COC(=O)[C@H](CCSC)NC(=O)C1=C(C=C(C=C1)NC[C@H](CS)N)C2=CC=CC=C2
Summary of the method: as §1

[8] = compound: COc1cc(Nc2ncc3c(n2)-c2ccc(Cl)cc2C(c2c(F)cccc2OC)=NC3)ccc1C(=O)O [alisertib]
Summary of the method: as §1

[9] = compound: COc1cc2nc(-c3cc(F)ccc3O)nc(N[C@@H]3CNC[C@H]3C(C)(C)O)c2cc1OC
Summary of the method: as §1

[10] = compound: COc1cc2ncnc(Nc3ccc(F)c(Cl)c3)c2cc1OCCCN1CCOCC1 [gefitinib]
Summary of the method: as §1

Measured: log2 fold change

WDR33 (UniProt Q9C0J8)
inactive: [1] 0.003 | [2] -0.072 | [3] -0.017 | [4] 0.048 | [5] 0.015 | [6] -0.012 | [7] 0.084 | [8] -0.012 | [9] 0.002 | [10] 0.001

WASHC2A (UniProt Q641Q2)
inactive: [1] -0.029 | [2] 0.007 | [3] -0.007 | [4] 0.019 | [5] 0.023 | [6] 0.031 | [7] -0.041 | [8] 0.018 | [9] 0.001 | [10] -0.016

WDR73 (UniProt Q6P4I2)
inactive: [1] -0.018 | [2] 0.003 | [3] 0.043 | [4] 0.013 | [5] -0.008 | [6] 0.064 | [7] -0.105 | [8] 0.063 | [9] 0.042 | [10] 0.007

WASHC4 (UniProt Q2M389)
inactive: [1] -0.005 | [2] 0 | [3] 0.013 | [4] 0.027 | [5] -0.03 | [6] -0.004 | [7] -0.012 | [8] 0.003 | [9] -0.018 | [10] -0.01

WARS (UniProt P23381)
inactive: [1] 0.074 | [2] 0.046 | [3] 0.03 | [4] -0.005 | [5] 0.053 | [6] -0.029 | [7] -0.033 | [8] -0.024 | [9] -0.01 | [10] -0.099

WIPF3 (UniProt A6NGB9)
inactive: [1] -0.067 | [2] 0.034 | [3] 0.024 | [4] 0.054 | [5] 0.075 | [6] -0.017 | [7] -0.064 | [8] -0.003 | [9] 0.017 | [10] 0.028

VPS13D (UniProt Q5THJ4)
inactive: [1] 0.02 | [2] -0.011 | [3] 0.108 | [4] -0.009 | [5] 0.041 | [6] 0.09 | [7] -0.047 | [8] -0.006 | [9] 0.113 | [10] 0.079

WIPI2 (UniProt Q9Y4P8)
inactive: [1] -0.036 | [2] 0.005 | [3] -0.007 | [4] 0.036 | [5] -0.051 | [6] 0.029 | [7] 0.049 | [8] -0.033 | [9] -0.012 | [10] -0.027

WDSUB1 (UniProt Q8N9V3)
inactive: [1] -0.015 | [2] 0.036 | [3] 0.013 | [4] -0.042 | [5] 0.015 | [6] 0.015 | [7] -0.044 | [8] 0.029 | [9] 0.01 | [10] 0.01

WDR26, A0A499FIZ0
inactive: [1] 0.012 | [2] -0.064 | [3] 0.002 | [4] -0.011 | [5] -0.129 | [6] 0.018 | [7] 0.014 | [8] -0.023 | [9] 0.014 | [10] 0.038

VMP1 (UniProt Q96GC9)
inactive: [1] -0.143 | [2] 0.017 | [3] 0.005 | [4] 0.029 | [5] -0.069 | [6] 0.074 | [7] -0.097 | [8] -0.01 | [9] 0.031 | [10] -0.003

WDR92 (UniProt Q96MX6)
inactive: [1] 0.027 | [2] 0.015 | [3] -0.005 | [4] -0.022 | [5] -0.006 | [6] 0.007 | [7] 0.022 | [8] 0.051 | [9] -0.009 | [10] -0.014

WRN (UniProt Q14191)
inactive: [1] -0.029 | [2] -0.071 | [3] -0.007 | [4] 0.023 | [5] -0.025 | [6] 0.016 | [7] -0.013 | [8] -0.037 | [9] 0 | [10] 0.047

WRAP73 (UniProt Q9P2S5)
inactive: [1] -0.005 | [2] 0.015 | [3] -0.041 | [4] 0.025 | [5] -0.138 | [6] 0 | [7] -0.107 | [8] 0.086 | [9] 0.006 | [10] 0.064

VPS41 (UniProt P49754)
inactive: [1] 0.068 | [2] -0.128 | [3] 0.03 | [4] 0.006 | [5] -0.055 | [6] 0.019 | [7] -0.072 | [8] -0.043 | [9] 0.006 | [10] -0.004

VPS13B (UniProt Q7Z7G8)
inactive: [1] -0.125 | [2] 0.005 | [3] 0.073 | [4] -0.062 | [5] 0.05 | [6] 0.118 | [7] -0.01 | [8] -0.008 | [9] 0.058 | [10] 0.048

WWC2 isoform 6 (UniProt Q6AWC2)
inactive: [1] -0.052 | [2] -0.072 | [3] 0.061 | [4] 0.004 | [5] -0.01 | [6] -0.027 | [7] 0.076 | [8] -0.045 | [9] -0.074 | [10] 0.025

WDR44 (UniProt Q5JSH3)
inactive: [1] -0.02 | [2] 0.047 | [3] 0.01 | [4] -0.013 | [5] 0.021 | [6] -0.001 | [7] -0.009 | [8] 0.004 | [9] 0.004 | [10] 0.011

WDR18 (UniProt Q9BV38)
inactive: [1] -0.014 | [2] -0.038 | [3] -0.001 | [4] 0.004 | [5] 0.046 | [6] 0.09 | [7] -0.192 | [8] -0.005 | [9] -0.033 | [10] 0.012

WASHC3 (UniProt Q9Y3C0)
inactive: [1] -0.025 | [2] 0.036 | [3] 0.015 | [4] 0.002 | [5] 0.059 | [6] 0.007 | [7] -0.019 | [8] 0.022 | [9] -0.028 | [10] -0.042

WDR45 isoform 2 (UniProt Q9Y484)
inactive: [1] -0.065 | [2] -0.067 | [3] -0.001 | [4] 0.013 | [5] -0.059 | [6] -0.042 | [7] -0.051 | [8] 0.021 | [9] -0.008 | [10] 0.037

WDCP (UniProt Q9H6R7)
inactive: [1] 0.019 | [2] -0.138 | [3] 0.025 | [4] 0.005 | [5] 0.032 | [6] 0.024 | [7] -0.019 | [8] 0.01 | [9] 0.062 | [10] -0.017

WDR20 isoform 7 (UniProt Q8TBZ3)
inactive: [1] -0.041 | [2] -0.035 | [3] 0.02 | [4] -0.049 | [5] -0.13 | [6] 0.078 | [7] -0.114 | [8] 0.175 | [9] -0.002 | [10] -0.149

Taken from the listing (2 entries):
WASHC3 (UniProt Q9Y3C0)
inactive: [1] -0.025 | [2] 0.036 | [3] 0.015 | [4] 0.002 | [5] 0.059 | [6] 0.007 | [7] -0.019 | [8] 0.022 | [9] -0.028 | [10] -0.042

WDR45 isoform 2 (UniProt Q9Y484)
inactive: [1] -0.065 | [2] -0.067 | [3] -0.001 | [4] 0.013 | [5] -0.059 | [6] -0.042 | [7] -0.051 | [8] 0.021 | [9] -0.008 | [10] 0.037

Going on with the list:

WDR7 (UniProt Q9Y4E6)
inactive: [1] -0.008 | [2] 0.008 | [3] 0 | [4] -0.025 | [5] 0.026 | [6] 0.092 | [7] -0.055 | [8] -0.007 | [9] -0.01 | [10] -0.025

VPS33B (UniProt Q9H267)
inactive: [1] 0.003 | [2] -0.073 | [3] -0.026 | [4] 0.002 | [5] -0.036 | [6] 0.028 | [7] 0.014 | [8] -0.012 | [9] 0.003 | [10] 0.027

WBP2 (UniProt Q969T9)
inactive: [1] 0.035 | [2] 0.039 | [3] -0.007 | [4] 0.056 | [5] 0.035 | [6] -0.005 | [7] -0.076 | [8] -0.023 | [9] -0.014 | [10] 0.03

VWA8 (UniProt A3KMH1)
inactive: [1] -0.057 | [2] 0.079 | [3] -0.042 | [4] 0.195 | [5] -0.018 | [6] -0.062 | [7] 0.205 | [8] 0.041 | [9] -0.084 | [10] -0.099

WDTC1 (UniProt Q8N5D0)
inactive: [1] -0.03 | [2] 0.018 | [3] 0.006 | [4] 0.029 | [5] -0.082 | [6] 0.05 | [7] 0.039 | [8] -0.007 | [9] -0.009 | [10] -0.077

WDR5 (UniProt P61964)
inactive: [1] -0.098 | [2] 0.048 | [3] 0.065 | [4] 0.028 | [5] 0.056 | [6] 0.023 | [7] -0.023 | [8] 0.031 | [9] -0.004 | [10] -0.026
